The list shows a part of the results.
Test system: T1, CTL2-GFP (C. trachomatis L2/434/Bu, GFP-expressing)
T1 construct: L2/434/Bu, GFP-expressing
Design: species or system HeLa; Intracellular C. trachomatis growth in HeLa cells, bulk GFP fluorescence relative to DMSO
Settings: bulk GFP, single well; 28.5 h, 10 µM; inhibitor

First: COc1ccc(N(CC(=O)N2CCN(C)CC2)S(=O)(=O)c2ccc(C)c([N+](=O)[O-])c2)cc1 [CBK264051]
Second: COc1ccc(CCNS(=O)(=O)c2cc([N+](=O)[O-])ccc2C)cc1OC [CBK267412]
The “% of control remaining” value of the first is lower: 100% for the first, 133.406% for the second.

First: CC(=O)Nc1cccc(-n2cnnc2SCC2CCOCC2)c1 [CBK306354]
Second: CC(C)CNC(=O)C1CCN(C(=O)c2cccc(F)c2)CC1 [CBK304338]
The “% of control remaining” value of the first is higher: 141.964% for the first, 139.591% for the second.

Compared with `CCOc1ccc(-c2csc(NC(=O)CC)n2)cc1` [CBK287764], `Cc1nc(C)c(-c2csc(Nc3ccc(S(N)(=O)=O)cc3)n2)s1` [CBK263292B] is higher in “% of control remaining” value: 89.4704% for the first, 105.527% for the second.

Going from `COC(=O)c1c(NC(=S)Nc2cccc(S(=O)(=O)N3CCOCC3)c2)sc2c1CCC2` [CBK267054] to `CC(=O)N1CCc2ccc(NC(=O)c3cncc(-c4ccc(C(=O)N5CCOCC5)cc4)c3)cc21` [CBK160217], the “% of control remaining” value falls from 149.368% to 119.067%.

First: Cc1cc(COC(=O)Nc2ccc3nc(C)ccc3c2)cc(C)n1 [CBK200127]
Second: COc1ccc(NC(=O)c2cc(C(C)C)n(-c3nc4ccccc4s3)n2)cc1 [CBK287667]
The “% of control remaining” value of the first is lower: 119.999% for the first, 122.761% for the second.

Going from `Cc1cc(S(=O)(=O)NC(=O)CC2CCOc3ccccc32)c(C)o1` (centres unmarked) [CBK304499] to `CN1C(=O)COc2ccccc2C/C=C/C[C@@H]2[C@H]1CCCN2C(=O)CNS(C)(=O)=O` [CBK292079], the “% of control remaining” value rises from 113.573% to 124.267%.

Compared with `CC(C)c1ccc(/C=C/C(=O)NCc2ccc(C#N)cc2)cc1` [CBK149642], `N#Cc1ccc(CN2CCN(S(=O)(=O)c3ccc(-n4cnc(Cl)c4Cl)cc3)CC2)cc1` [CBK062972] is lower in “% of control remaining” value: 100% for the first, 87.8256% for the second.

Compared with `COC(=O)CN1C(=O)N2CCCN=C2c2ccc(Cl)cc21` [CBK284402], `Cn1ncc(N2CCC(CNC(=O)Cc3ccc(O)c(Cl)c3)C2)cc1=O` (centres unmarked) [CBK307689] is higher in “% of control remaining” value: 108.214% for the first, 116.911% for the second.

Going from `O=C(O)c1ccccc1C(=O)Nc1c(-c2ccccc2)nc2ccccn12` [CBK287041] to `Cc1oc(-c2ccccc2)nc1CCOc1ccc(NC(=O)c2ccc(Cl)cc2Cl)c(C(=O)O)c1` [CBK000168D], the “% of control remaining” value falls from 115.146% to 106.404%.

Compared with `CC(C)Nc1nc2cc(Cl)c(Cl)cc2nc1OCc1cccnc1` [CBK115743], `Clc1cc2nc(Sc3ccccn3)c(N3CCCC3)nc2cc1Cl` [CBK093754] is lower in “% of control remaining” value: 117.02% for the first, 100.947% for the second.

Going from `COc1cccc2ncn(C(C)c3nc(C)sc3C)c(=O)c12` (centres unmarked) [CBK306570] to `CC(C)Cn1c(=O)[nH]c2ncc(-c3ccco3)nc21` [CBK064353], the “% of control remaining” value rises from 112.446% to 138.978%.

First: COc1cc(CN2CCN(c3ccccn3)CC2)ccc1OCc1ccccc1 [CBK261906]
Second: COc1ccc([C@@]23CC[C@@H](NC(=O)c4ccc(-c5ccccc5)cc4)CC2N(C)CC3)cc1OC (some centres unmarked) [CBK074973T]
The “% of control remaining” value of the first is higher: 116.355% for the first, 42.2307% for the second.

First: Cc1ccc2cc(CN(Cc3ccc(N(C)C)cc3)C(=O)NC3CCCCC3)c(=O)[nH]c2c1C [CBK132070]
Second: CCCc1ccc(S(=O)(=O)N2CCN(Cc3ccc4c(c3)OCO4)CC2)cc1 [CBK074735]
The “% of control remaining” value of the first is lower: 58.3918% for the first, 99.4912% for the second.

Compared with `CNCS(=O)(=O)C(F)(F)S(=O)(=O)N(C)C` [CBK018820], `Cc1ccc(CSCCNS(=O)(=O)c2cccc([N+](=O)[O-])c2)cc1` [CBK267864] is lower in “% of control remaining” value: 153.564% for the first, 83.596% for the second.

Going from `Cc1cccc(CNc2nccnc2-c2cccs2)c1` [CBK036808] to `COc1ccccc1-c1nccnc1NCc1ccc(OC(F)(F)F)cc1` [CBK036761], the “% of control remaining” value rises from 98.0282% to 114.798%.

Compared with `Cc1nc(C(=O)N2CCC3(CCCCOc4ccccc4C(=O)NCCNC3=O)CC2)co1` [CBK292089], `CS(=O)(=O)N1CC2(CCN(Cc3nc4ccccc4[nH]3)CC2)c2ccccc21` [CBK126672] is lower in “% of control remaining” value: 163.495% for the first, 107.881% for the second.

Going from `CC(=O)N1CCN(CC(O)Cn2c3ccccc3c3ccccc32)CC1` (centres unmarked) [CBK305588] to `COc1ccc(C(O)Cn2c(=N)n(CCN3CCCCC3)c3ccccc32)cc1` (centres unmarked) [CBK262930C], the “% of control remaining” value rises from 98.9151% to 124.399%.

First: CC(=O)N1CCC(O)(C2(C)OC(NC3C4CC5CC(C4)CC3C5)=NC2=O)CC1 (centres unmarked) [CBK138181]
Second: CC(=O)N[C@H](C(=O)N1CCC2(C/C=C/C[C@H]3COCC[C@H]3NC(=O)[C@@H](CC(C)C)NC2=O)CC1)[C@@H](C)OC(C)(C)C [CBK292197]
The “% of control remaining” value of the first is higher: 116.713% for the first, 115.444% for the second.

Compared with `COc1ccc(C(=O)NNC(=O)c2cccc(O)c2)cc1` [CBK262594], `CNC(=O)c1oc(-c2ccc(OC)cc2)c(-c2ccc(OC)cc2)c1C(=O)NC` [CBK001956] is higher in “% of control remaining” value: 85.736% for the first, 93.9886% for the second.

Compared with `CC1(C)Cc2nc(-c3ccccc3)nc(SCC(=O)NCCc3ccccc3)c2CO1` [CBK267205], `CC(C)CNc1nc2c(c(=O)n(Cc3ccccc3)c(=O)n2C)n1Cc1ccccc1` [CBK293946] is lower in “% of control remaining” value: 177.319% for the first, 135.48% for the second.

First: Cc1ccc(NC(=S)N2CCCC2C(=O)O)c(C)c1 (centres unmarked) [CBK007148]
Second: O=C(Nc1ccccc1[N+](=O)[O-])c1ccc(Cl)c(S(=O)(=O)N2CCC(C(=O)O)CC2)c1 [CBK265180]
The “% of control remaining” value of the first is lower: 100% for the first, 112.666% for the second.

First: CN(C)/N=C\c1cccc(O)c1 [CBK015814]
Second: CC(Oc1cccc(Cl)c1)C(=O)NN (centres unmarked) [CBK261207]
The “% of control remaining” value of the first is higher: 151.869% for the first, 93.433% for the second.

Going from `CC(=O)Nc1ccc(-c2nc(-c3ccc(-c4ccccc4)cc3)c(-c3ccc(-c4ccccc4)cc3)[nH]2)cc1` [CBK262620] to `N#C/C(=C\c1cn(-c2ccccc2)nc1-c1ccc(S(=O)(=O)N2CCOCC2)cc1)c1nc2ccccc2c(=O)[nH]1` [CBK266343], the “% of control remaining” value rises from 100% to 211.714%.

Going from `O=C1CC(c2ccco2)CC(=O)C1=CNCCN1CCNCC1` (centres unmarked) [CBK263668] to `Cn1nc(C2CCCCC2)cc1[C@H]1CN2CC[C@H]1C[C@@H]2CNC(=O)c1ccco1` [CBK289106], the “% of control remaining” value falls from 118.057% to 116.731%.

First: NC(=O)COc1ccc(CNC(=O)CN2CCCCCC2)cc1 [CBK306332]
Second: CC(C)c1cccc(C(C)C)c1OCC(O)CN1CCCCC1 (centres unmarked) [CBK003079T]
The “% of control remaining” value of the first is lower: 136.956% for the first, 145.397% for the second.

Compared with `OC1(c2ccc(F)cc2)CC2CCC(C1)N2CC1=CCCOC1` (centres unmarked) [CBK282942], `Cc1ccc(C(=O)N2C[C@H]3CC[C@](O)(c4ccc(F)cc4)[C@H]3C2)o1` [CBK285267] is higher in “% of control remaining” value: 72.4979% for the first, 121.026% for the second.

Going from `CCn1c(CC2CCN(c3ncc(C#N)c(N)n3)CC2)nn(C)c1=O` [CBK306788] to `Cc1ccccc1Nc1nc(N)nc(CN2CCN(C)CC2)n1` [CBK304217], the “% of control remaining” value falls from 108.012% to 105.153%.

Going from `Cc1cccc(C(C)(C)C)c1OCCNCCN` [CBK265058G] to `CC(Sc1ccccc1)C(=O)NC(C)(C)C` (centres unmarked) [CBK026610], the “% of control remaining” value rises from 85.291% to 110.768%.

Compared with `CCCCCCN(CCN1CCOCC1)C(=O)Nc1cc(C)on1` [CBK305147], `Cc1cc(C2CCCCCN2Cc2c(C)nn(C)c2C)no1` (centres unmarked) [CBK284846] is higher in “% of control remaining” value: 82.9275% for the first, 114.092% for the second.

Going from `CCCCC(=O)N(C)c1c(CC)nc2c(OCCn3cccc3)cccn12` [CBK147785] to `CCNc1ncc(C(=O)NC(CCn2ccnc2)c2ccccc2)cn1` (centres unmarked) [CBK307066], the “% of control remaining” value falls from 176.792% to 125.631%.

First: Cc1c(C(c2ccc3ccccc3c2)c2c(C)n(C)n(-c3ccccc3)c2=O)c(=O)n(-c2ccccc2)n1C [CBK261692]
Second: O=C(O)c1[nH]c2ccccc2c1NS(=O)(=O)c1ccc(Br)cc1 [CBK049878]
The “% of control remaining” value of the first is lower: 46.4225% for the first, 102.012% for the second.

Compared with `O=[N+]([O-])c1ccc2c(c1)C(N1CCOCC1)/C(=C/C1(O)CCCCC1)O2` (centres unmarked) [CBK263200], `COc1ccc(C(=O)N2CCC3(CCN(C(=O)Cc4c[nH]cn4)C3)C2)cc1OC` (centres unmarked) [CBK131768] is lower in “% of control remaining” value: 111.364% for the first, 108.433% for the second.

First: CN(CC1COCCO1)C(=O)c1cc(Cn2ccc3ccccc32)[nH]n1 (centres unmarked) [CBK307673]
Second: COC(=O)c1ccc(-n2cccn2)c(C#Cc2cccnc2)c1 [CBK284525]
The “% of control remaining” value of the first is lower: 108.208% for the first, 159.868% for the second.

First: O=S(=O)(c1ccccc1)N1C[C@@H]2CCCCN(CC3CC3)[C@@H]2C1 [CBK285501]
Second: O=S(=O)(c1ccccc1)N1CCCC1c1cccs1 (centres unmarked) [CBK057002]
The “% of control remaining” value of the first is higher: 120.182% for the first, 119.508% for the second.

Going from `O=C(NCCCn1ccnc1)c1cc2ncc(Br)cn2n1` [CBK277080] to `CC(=O)NCc1cccc(-c2cc(CO)cnc2-c2ccc(Cl)cc2)c1` [CBK161445], the “% of control remaining” value falls from 139.016% to 89.6188%.

Going from `COc1ccc(OC[C@@H]2C3CCC(C3)N2C(=O)C2CC2)cc1` (some centres unmarked) [CBK284602] to `CC(C)(C)OC(=O)N1CCCC(C(=O)NCCc2ccccn2)C1` (centres unmarked) [CBK304281], the “% of control remaining” value falls from 120.866% to 97.4433%.

Compared with `COc1cccc(-c2cc3c(=S)[nH]ccn3n2)c1` [CBK288437], `Nc1ncc(-c2cccc(OC(F)(F)F)c2)nc1-c1ccc(F)c(Cl)c1` [CBK064021] is lower in “% of control remaining” value: 136.592% for the first, 79.1826% for the second.

Going from `OCCN1CCN(C2CCN(Cc3ccccc3Cl)CC2)CC1` [CBK264710] to `CC(=O)N1C[C@@H]2OCC(=O)N(Cc3nccn3C)[C@@H]2C1` [CBK289668], the “% of control remaining” value rises from 116.355% to 122.713%.

For `Cc1ccc(-c2nnc(NCc3cnn(C)c3C)o2)c(C)c1` [CBK306166], the “% of control remaining” value was 111.657%.

Source: paper PMC12040169 (PLOS Biology, 2025)
